Test system: lung adenocarcinoma cell lines (H358, H1650, H1975, and HCC4006)
Test: Internalization of PEG-BCT-100 by immunocytochemistry using anti-PEG-antibodies
Assay type: cell-based

B1: PEG-BCT-100: pegylated recombinant human arginase I (SEQ ID NO.1, or SEQ ID NO.3 with six histidines), about 6-12 PEG molecules per arginase (protein, UniProt P05089 1-322, looked up)
Arginase-1: MSAKSRTIGIIGAPFSKGQPRGGVEEGPTVLRKAGLLEKLKEQECDVKDYGDLPFADIPNDSPFQIVKNPRSVGKASEQLAGKVAEVKKNGRISLVLGGDHSLAIGSISGHARVHPDLGVIWVDAHTDINTPLTTTSGNLHGQPVSFLLKELKGKIPDVPGFSWVTPCISAKDIVYIGLRDVDPGEHYILKTLGIKYFSMTEVDRLGIGKVMEETLSYLLGRKKRPIHLSFDVDGLDPSFTPATGTPVVGGLTYREGLYITEEIYKTGLLSGLDIMEVNPSLGKTPEEVTRTVNTAVAITLACFGLAREGNHKPIDYLNPPK
modifications: PEG, about 6-12 per arginase; optional His6 tag
H1975, H1650, and HCC4006 cells, at IC50 level
  internalization (penetration into cells): able to penetrate
All examined lung adenocarcinoma cells, at 0.1 μg/μl
  internalization (penetration into cells): able to penetrate into all examined lung adenocarcinoma cells
Examined cell lines, IC50 concentrations and 0.1 μg/μl
  internalization (cytosolic staining by anti-PEG antibody): able to penetrate the cells

From patent US20180271960A1, “METHOD TO TREAT CANCER USING ARGININE DELPETOR AND ORNITHINE DECARBOXYLASE (ODC) INHIBITOR” (Bio-Cancer Treatment International Ltd., priority 2015, published 2018)
